# The campaign covered roughly 340,000 compounds. About 6,200 (1.8%) were called active. This list was built around the results that the source calls inconclusive (neither active nor inactive); the mix of calls is not that of the screen. Calls follow the shape of the dose curve; as a rule, active = well fitted activation curve with a large enough effect; inconclusive = small, poorly fitted or top-dose-only effect; inactive = no such curve, though single readings can be large or run the other way. Potencies beside an inconclusive call are fits to weak or partial responses and may not hold up.
# Experiment: A quantitative high throughput screen for small molecules that induce DNA re-replication in SW480 colon adenocarcinoma cells. Also: nearly all actives have a fitted effect of over 55% in size. As to re-replication activation: % of control where 0% means no effect.
# Conditions: Hoechst DNA content imaging, 48 h; re-replication activation: at 46.1 µM (top of the series) unless noted
# Summary of the method: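 250 cells/well; 23 nL cpd via pin tool; 48 hr, 37 C, 5% CO2; Hoechst 40 min; imager read of total nuclear intensity, ex 405/em 500-530 nm.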
# Potency is read from the fitted curve at half-maximal effect.
SMILES,Potency,re-replication activation
Fc1ccc(Br)cc1C1C=C(c2cccnc2)Nc2ncnn21 (centres undefined),"inconclusive: 29.1 µM [activator, partial curve, poor fit]",
O=C(c1ccc(F)cc1)N1CCN(C2CCC(c3ccccc3)CC2)CC1 (centres undefined),"inconclusive: 13 µM [activator, single point]",
CCc1ccc(NC(=O)CCn2c(=O)c3cccn3c3ccccc32)cc1,"inconclusive: 18.4 µM [activator, single point]",
CCO[C@@H]1OC(C(=O)N2CCN(Cc3ccc4c(c3)OCO4)CC2)=C[C@H](c2coc3ccccc3c2=O)[C@H]1CCCO,,inactive: -5.64%
Clc1ccc(OCCOCCNCc2ccccc2)cc1Cl,,inactive: -2.91%
COc1cccc(NC(=O)NNC(=O)CN2C(=O)COc3ccccc32)c1,,inactive: -1.3%
C=C(C)COc1ccc(-c2nc(N)nc(C)c2-c2ccc(OC)cc2)c(O)c1,"inconclusive: 32.6 µM [activator, partial curve, poor fit]",
CCOc1cc(/C=N/NC(=O)c2ccncc2)ccc1OS(C)(=O)=O,,inactive: -3.62%
CCOc1cc(C2CC(=O)NC3=C2C(=O)C(C(=O)OC)C(C)C3)cc(Cl)c1O (centres undefined),,inactive: 7.26%
CCOC(=O)c1[nH]c(CN2CCN(c3ccc(OC)cc3)CC2)c(C(=O)OCC)c1C,"inconclusive: 29.1 µM [activator, single point]",
CCC(C)(C)NC(=O)C(c1ccccc1Cl)N(C(=O)CCC(=O)Nc1cc(C)on1)c1ccc(NC(C)=O)cc1 (centres undefined),"inconclusive: 29.1 µM [activator, single point]",
CCC(C)N(C(=O)COC(=O)CN=C1NS(=O)(=O)c2ccccc21)C1CCS(=O)(=O)C1 (centres undefined),,inactive: -4.04%
O=C(C1CCN(S(=O)(=O)N2CCCC2)CC1)N1CCCCC1,"inconclusive: 25.9 µM [activator, partial curve, poor fit]",
COc1ccc(-c2ccc3c(c2)S(=O)(=O)c2cccc(C(=O)NCCOc4ccccc4)c2C3=O)cc1OC,,inactive: -2.19%
O=S(=O)(NNc1cccc(Cl)n1)c1ccc(Cl)cc1,,inactive: 0.856%
CCOCCCn1c(=NC(=O)c2cccs2)c(C#N)cc2c(=O)n3cccc(C)c3nc21,"inconclusive: 0.517 µM [activator, partial curve, poor fit]",
COc1ccc(C(=O)NC(C)CCCC(C)(C)O)cc1OC1CCN(C(C)=O)CC1 (centres undefined),"inconclusive: 0.731 µM [activator, full curve, poor fit]",
COc1ccc(OC)c(S(=O)(=O)N2CCN(C(=O)NC3CCCCC3)CC2)c1,,inconclusive: 29.6% [activator]
Cc1ccc(SCC(=O)Nc2ccc(C(=O)Nc3ccc(O)cc3)cc2)cc1,,inactive: -3.46%
NC(=O)N/N=C/c1sc(N2CCCCC2)nc1-c1cccs1,active: 20.6 µM,
CC(=O)c1ccc(NC(=S)NC(=O)/C=C/c2ccc(F)cc2)cc1,,inactive: 0.652%
COc1ccc(NC(=O)c2cccc(-n3c(C)ccc3C)c2)c(OC)c1,"inconclusive: 16.4 µM [activator, single point]",

SMILES,Potency,re-replication activation
S=c1nc(C2CCCCC2)[nH][nH]1,,inactive: 3.22%
C=CCN1C(=O)C(O)(CC(=O)c2ccc(OC)cc2OC)c2cc(Br)ccc21 (centres undefined),"inconclusive: 29.1 µM [activator, single point]",
CCCn1c(=N)n(CC(=O)c2cccs2)c2ccccc21,,inactive: 14.4%
COc1cccc(/C=C2\SC(=S)N(CCC(=O)N3CCCCC3CCO)C2=O)c1 (centres undefined),active: 18.4 µM,
CC(C)c1ccc(NC(=O)CCN2C(=O)[C@@H]3Cc4ccccc4CN3C2=O)cc1,"inconclusive: 29.1 µM [activator, partial curve, poor fit]",
FC(F)(F)c1cc(Oc2ccc(Cl)cc2)nc(-c2ccccn2)n1,,inactive: 2.39%
Cc1cc(C(=O)N/N=C/c2c(C)[nH]c3ccccc23)n[nH]1,"inconclusive: 0.103 µM [activator, full curve, poor fit]",
Cc1cccc(/C=N/NC(=O)Cc2ccc(Cl)cc2)c1O,"inconclusive: 29.1 µM [activator, single point]",
O=C(Nc1ccccc1)C(=O)Nc1ccc2c(c1)N(C(=O)C1CC1)CCC2,"inconclusive: 23.1 µM [activator, partial curve, poor fit]",
C[C@]12C(=O)N(c3cccc(Cl)c3)C(=O)N1[C@H]1c3ccccc3OC[C@@H]1[C@H]2c1ccccc1,"inconclusive: 0.058 µM [activator, full curve]",
CC(=O)N1N=C(c2ccco2)CC1c1ccc(Cl)o1 (centres undefined),"inconclusive: 0.103 µM [activator, full curve, poor fit]",
CCSc1nc(NCCN(C)C)c2c3c(sc2n1)COC(C)(CC)C3 (centres undefined),"inconclusive: 29.1 µM [activator, single point]",
Cc1ccc(-c2cc(-c3ccccc3)nc(N/N=C/c3cccnc3)n2)cc1,"inconclusive: 23.1 µM [activator, single point]",
COc1ccc(Nc2nnc(-c3ccc(O)cc3)c3ccccc23)cc1,"inconclusive: 0.82 µM [activator, full curve, poor fit]",
CCOC(=O)C1(C)C(C(=O)OC)=C(c2ccc(OC)cc2)c2ccccc2N1C(=O)OC (centres undefined),"inconclusive: 20.6 µM [activator, single point]",
Cc1cc(NCCN2CCOCC2)n2nc(C)c(-c3ccc(Cl)cc3)c2n1,,inactive: 12.2%
CSc1nc(-c2ccco2)nn1C(=O)c1ccccc1Cl,"inconclusive: 18.4 µM [activator, single point]",
CCOc1ccc(NC(=O)c2c(NC(=O)CNCCN3CCOCC3)sc3c2CCC3)cc1,active: 7.31 µM,
COc1ccc(OC)c(-c2nnc3n2N=C(c2ccc(OC)c(OC4CCCC4)c2)CS3)c1,active: 0.731 µM,
O=C(O)CN(c1ccc(F)cc1)S(=O)(=O)c1ccc2c(c1)OCCO2,"inconclusive: 29.1 µM [activator, partial curve, poor fit]",
O=C(CSc1nc2c(sc3ccccc32)c(=O)n1CCCN1CCCC1)NCc1ccccc1,,inactive: 18.1%
CCN(CC)P(=O)(Nc1ccc(C)cc1Br)c1ccc(N(C)C)cc1NC(=O)c1ccco1 (centres undefined),"inconclusive: 18.4 µM [activator, partial curve, poor fit]",

# Grouped by structure, the compounds so far with bromine (3)
SMILES,Potency,re-replication activation
Fc1ccc(Br)cc1C1C=C(c2cccnc2)Nc2ncnn21 (centres undefined),"inconclusive: 29.1 µM [activator, partial curve, poor fit]",
C=CCN1C(=O)C(O)(CC(=O)c2ccc(OC)cc2OC)c2cc(Br)ccc21 (centres undefined),"inconclusive: 29.1 µM [activator, single point]",
CCN(CC)P(=O)(Nc1ccc(C)cc1Br)c1ccc(N(C)C)cc1NC(=O)c1ccco1 (centres undefined),"inconclusive: 18.4 µM [activator, partial curve, poor fit]",

# From PubChem BioAssay AID624297 (National Center for Advancing Translational Sciences (NCATS), 2012)
